Data taken from the supplement of paper PMC7666118.
This is one part of the list.

Sequences of proteins named here, by UniProt entry; tags and fusion partners are left off. A change or cut given only in a name is not applied to a line headed by its entry.
UniProt P61020: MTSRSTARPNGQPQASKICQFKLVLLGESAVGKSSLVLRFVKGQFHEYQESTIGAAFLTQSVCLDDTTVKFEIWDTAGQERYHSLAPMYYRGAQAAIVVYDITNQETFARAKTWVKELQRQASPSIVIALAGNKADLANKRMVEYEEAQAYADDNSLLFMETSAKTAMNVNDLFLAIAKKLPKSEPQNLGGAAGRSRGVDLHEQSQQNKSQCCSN
UniProt Q5HYI8: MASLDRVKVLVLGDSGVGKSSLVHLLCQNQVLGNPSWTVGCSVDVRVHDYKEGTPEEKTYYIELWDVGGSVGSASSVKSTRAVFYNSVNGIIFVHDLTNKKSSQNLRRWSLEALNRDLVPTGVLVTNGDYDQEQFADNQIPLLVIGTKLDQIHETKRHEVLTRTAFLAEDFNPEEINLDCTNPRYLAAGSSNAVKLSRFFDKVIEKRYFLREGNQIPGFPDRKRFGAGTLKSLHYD
UniProt P12724: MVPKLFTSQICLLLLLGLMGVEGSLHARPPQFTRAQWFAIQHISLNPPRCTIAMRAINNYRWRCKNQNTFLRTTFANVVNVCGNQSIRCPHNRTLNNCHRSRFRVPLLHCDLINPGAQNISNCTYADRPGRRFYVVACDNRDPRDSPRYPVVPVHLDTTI
UniProt Q08999: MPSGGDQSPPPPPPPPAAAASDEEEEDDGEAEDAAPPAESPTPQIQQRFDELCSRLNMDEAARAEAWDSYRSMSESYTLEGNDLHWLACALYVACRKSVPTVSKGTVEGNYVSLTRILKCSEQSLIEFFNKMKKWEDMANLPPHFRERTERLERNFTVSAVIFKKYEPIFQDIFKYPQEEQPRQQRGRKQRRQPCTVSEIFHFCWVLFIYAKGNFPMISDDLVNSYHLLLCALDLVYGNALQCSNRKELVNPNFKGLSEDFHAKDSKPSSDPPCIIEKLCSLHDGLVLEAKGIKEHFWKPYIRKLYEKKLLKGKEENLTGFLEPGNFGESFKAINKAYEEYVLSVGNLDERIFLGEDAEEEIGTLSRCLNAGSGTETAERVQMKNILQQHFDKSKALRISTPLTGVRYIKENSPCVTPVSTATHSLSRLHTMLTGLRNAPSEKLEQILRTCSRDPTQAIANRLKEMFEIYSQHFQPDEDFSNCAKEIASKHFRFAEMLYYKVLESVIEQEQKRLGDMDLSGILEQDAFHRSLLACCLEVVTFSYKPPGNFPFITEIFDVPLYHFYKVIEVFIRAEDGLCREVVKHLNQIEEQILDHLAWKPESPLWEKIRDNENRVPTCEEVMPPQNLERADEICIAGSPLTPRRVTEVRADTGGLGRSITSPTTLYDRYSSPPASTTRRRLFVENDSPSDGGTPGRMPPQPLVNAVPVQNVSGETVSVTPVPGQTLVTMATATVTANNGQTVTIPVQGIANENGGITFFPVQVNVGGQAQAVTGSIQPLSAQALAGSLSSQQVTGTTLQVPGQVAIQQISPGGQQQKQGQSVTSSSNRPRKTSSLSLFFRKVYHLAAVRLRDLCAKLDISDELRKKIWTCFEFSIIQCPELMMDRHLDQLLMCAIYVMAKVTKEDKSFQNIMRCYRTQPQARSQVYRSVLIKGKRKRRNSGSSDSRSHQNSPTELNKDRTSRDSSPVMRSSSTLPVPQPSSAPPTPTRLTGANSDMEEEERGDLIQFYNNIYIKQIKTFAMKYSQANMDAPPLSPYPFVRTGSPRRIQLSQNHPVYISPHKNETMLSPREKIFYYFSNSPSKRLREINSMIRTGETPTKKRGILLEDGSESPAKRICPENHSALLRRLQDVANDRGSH
UniProt Q5T8P6: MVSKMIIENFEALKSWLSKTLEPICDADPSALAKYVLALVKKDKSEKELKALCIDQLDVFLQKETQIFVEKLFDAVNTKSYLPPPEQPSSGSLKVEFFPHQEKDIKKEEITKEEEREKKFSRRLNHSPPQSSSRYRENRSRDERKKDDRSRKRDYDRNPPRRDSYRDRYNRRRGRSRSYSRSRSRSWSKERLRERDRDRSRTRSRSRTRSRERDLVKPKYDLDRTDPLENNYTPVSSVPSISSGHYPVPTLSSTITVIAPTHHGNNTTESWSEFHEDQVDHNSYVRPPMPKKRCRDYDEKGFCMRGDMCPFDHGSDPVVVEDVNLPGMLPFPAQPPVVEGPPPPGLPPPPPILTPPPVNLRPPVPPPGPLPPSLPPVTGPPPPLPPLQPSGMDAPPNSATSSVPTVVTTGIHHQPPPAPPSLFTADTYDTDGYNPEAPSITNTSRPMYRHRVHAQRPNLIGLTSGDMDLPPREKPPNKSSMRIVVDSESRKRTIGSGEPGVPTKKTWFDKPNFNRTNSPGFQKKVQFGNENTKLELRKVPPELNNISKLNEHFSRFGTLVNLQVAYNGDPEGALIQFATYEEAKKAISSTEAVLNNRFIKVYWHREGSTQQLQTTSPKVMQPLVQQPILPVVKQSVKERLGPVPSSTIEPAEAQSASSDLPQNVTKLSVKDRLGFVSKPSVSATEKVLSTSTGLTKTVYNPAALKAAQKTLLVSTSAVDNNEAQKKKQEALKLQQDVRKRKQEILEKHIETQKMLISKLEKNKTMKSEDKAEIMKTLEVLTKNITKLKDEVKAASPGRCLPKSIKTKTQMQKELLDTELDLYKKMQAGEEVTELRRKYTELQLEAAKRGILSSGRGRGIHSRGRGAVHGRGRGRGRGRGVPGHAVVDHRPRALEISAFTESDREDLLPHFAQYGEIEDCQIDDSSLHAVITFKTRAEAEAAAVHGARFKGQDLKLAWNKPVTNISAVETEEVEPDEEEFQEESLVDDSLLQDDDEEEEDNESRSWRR
UniProt Q96S59, whole entry: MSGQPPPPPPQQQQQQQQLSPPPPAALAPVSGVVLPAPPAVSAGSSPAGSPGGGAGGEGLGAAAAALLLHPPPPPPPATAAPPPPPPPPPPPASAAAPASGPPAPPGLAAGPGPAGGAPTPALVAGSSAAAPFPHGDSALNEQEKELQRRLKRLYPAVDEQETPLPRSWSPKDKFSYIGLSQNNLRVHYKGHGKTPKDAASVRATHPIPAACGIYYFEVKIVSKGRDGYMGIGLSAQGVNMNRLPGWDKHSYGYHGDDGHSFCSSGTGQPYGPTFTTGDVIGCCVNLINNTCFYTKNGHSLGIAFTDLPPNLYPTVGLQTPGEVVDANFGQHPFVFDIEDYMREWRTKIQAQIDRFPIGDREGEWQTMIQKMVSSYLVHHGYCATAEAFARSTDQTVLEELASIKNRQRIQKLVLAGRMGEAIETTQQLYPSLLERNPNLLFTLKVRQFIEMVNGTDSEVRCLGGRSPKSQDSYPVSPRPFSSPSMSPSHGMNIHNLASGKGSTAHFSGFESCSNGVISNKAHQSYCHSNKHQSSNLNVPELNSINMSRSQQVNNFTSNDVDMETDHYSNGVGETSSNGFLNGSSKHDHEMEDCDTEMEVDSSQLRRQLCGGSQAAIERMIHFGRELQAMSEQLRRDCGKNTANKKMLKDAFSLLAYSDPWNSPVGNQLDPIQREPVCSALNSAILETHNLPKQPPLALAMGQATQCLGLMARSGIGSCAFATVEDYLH
UniProt O95716: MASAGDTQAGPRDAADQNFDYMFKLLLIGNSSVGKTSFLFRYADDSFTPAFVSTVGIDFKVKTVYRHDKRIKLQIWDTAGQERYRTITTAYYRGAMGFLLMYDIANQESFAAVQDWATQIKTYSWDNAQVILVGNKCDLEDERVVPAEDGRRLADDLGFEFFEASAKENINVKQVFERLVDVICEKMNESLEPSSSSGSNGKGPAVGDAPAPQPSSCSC
UniProt Q86YS6: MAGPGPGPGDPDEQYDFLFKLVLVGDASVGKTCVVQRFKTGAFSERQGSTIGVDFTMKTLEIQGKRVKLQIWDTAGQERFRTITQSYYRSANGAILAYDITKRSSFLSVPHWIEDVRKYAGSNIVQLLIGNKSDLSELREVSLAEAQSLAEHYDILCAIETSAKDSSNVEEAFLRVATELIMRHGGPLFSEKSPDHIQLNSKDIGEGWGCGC
UniProt P78406: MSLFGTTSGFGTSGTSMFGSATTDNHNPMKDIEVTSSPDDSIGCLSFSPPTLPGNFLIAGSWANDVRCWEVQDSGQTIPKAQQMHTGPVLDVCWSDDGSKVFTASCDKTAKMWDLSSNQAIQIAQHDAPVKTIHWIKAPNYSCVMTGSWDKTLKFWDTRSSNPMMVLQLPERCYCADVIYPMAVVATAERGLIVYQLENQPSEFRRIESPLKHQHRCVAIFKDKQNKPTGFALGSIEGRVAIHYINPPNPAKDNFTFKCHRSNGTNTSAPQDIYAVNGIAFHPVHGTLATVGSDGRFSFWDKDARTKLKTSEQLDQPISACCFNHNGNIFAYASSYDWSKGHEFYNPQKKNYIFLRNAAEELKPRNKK
UniProt Q06609, whole entry: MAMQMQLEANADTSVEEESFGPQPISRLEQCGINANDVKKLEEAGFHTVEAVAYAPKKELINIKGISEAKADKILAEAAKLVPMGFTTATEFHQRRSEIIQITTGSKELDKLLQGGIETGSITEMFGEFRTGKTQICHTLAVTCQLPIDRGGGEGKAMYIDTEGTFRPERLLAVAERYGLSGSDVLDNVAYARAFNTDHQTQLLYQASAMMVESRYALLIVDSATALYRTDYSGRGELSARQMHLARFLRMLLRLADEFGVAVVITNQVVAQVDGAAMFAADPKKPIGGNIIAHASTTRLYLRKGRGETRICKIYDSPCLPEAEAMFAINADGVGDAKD
UniProt Q9UI14, whole entry: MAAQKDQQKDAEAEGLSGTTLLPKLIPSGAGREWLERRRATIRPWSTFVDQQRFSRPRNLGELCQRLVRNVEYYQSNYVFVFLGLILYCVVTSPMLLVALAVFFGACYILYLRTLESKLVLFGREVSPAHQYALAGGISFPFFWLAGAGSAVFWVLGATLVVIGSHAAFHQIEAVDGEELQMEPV
UniProt Q15283: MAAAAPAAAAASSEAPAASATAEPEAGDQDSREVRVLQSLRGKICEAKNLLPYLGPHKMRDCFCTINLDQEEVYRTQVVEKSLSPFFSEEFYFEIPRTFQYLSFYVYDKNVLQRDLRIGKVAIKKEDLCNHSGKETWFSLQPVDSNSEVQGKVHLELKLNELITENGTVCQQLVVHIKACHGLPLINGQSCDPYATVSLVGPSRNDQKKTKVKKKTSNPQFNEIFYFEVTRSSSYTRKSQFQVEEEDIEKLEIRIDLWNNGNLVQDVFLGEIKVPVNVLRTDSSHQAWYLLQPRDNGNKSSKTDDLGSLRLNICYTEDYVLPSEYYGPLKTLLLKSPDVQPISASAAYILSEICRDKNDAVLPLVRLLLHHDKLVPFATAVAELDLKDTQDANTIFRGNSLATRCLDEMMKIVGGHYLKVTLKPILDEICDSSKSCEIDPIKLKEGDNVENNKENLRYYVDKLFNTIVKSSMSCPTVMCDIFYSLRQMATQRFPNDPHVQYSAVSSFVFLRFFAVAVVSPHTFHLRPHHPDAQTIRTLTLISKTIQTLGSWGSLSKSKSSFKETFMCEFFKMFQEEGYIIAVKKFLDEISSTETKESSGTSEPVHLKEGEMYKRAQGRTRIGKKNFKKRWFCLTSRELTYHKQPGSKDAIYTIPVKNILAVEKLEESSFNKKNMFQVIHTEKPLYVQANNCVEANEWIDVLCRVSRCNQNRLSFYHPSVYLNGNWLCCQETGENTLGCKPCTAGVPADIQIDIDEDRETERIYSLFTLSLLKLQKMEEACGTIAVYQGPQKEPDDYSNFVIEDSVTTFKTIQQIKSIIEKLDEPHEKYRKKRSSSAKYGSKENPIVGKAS
UniProt Q9H871: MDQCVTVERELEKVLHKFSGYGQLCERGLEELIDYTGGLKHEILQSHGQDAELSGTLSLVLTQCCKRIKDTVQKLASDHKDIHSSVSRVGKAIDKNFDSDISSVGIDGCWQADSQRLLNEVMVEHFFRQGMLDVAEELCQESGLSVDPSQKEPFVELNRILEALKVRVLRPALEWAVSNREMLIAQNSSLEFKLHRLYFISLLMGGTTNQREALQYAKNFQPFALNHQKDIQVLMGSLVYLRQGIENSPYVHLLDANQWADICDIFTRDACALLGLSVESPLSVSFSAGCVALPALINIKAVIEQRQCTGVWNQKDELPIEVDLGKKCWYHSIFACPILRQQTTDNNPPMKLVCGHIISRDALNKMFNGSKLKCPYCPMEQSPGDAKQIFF
UniProt P61224: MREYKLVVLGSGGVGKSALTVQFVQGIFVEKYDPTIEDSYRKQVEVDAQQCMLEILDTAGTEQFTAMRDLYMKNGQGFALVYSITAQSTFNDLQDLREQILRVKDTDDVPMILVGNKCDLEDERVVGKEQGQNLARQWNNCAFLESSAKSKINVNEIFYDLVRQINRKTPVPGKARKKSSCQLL
UniProt Q9NP72: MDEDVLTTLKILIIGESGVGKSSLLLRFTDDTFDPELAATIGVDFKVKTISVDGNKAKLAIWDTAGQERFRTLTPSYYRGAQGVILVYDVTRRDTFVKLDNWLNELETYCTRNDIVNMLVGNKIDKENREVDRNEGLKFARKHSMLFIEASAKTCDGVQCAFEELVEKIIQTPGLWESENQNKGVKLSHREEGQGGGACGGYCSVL

The targets below were run with COc1ccc(Cn2ccc3cc(C)c(C(=O)NO)cc32)cc1 (assay: dose-dependent thermal stabilisation call (2D-TPP, DLPTP, 10% FDR) (binary (1 = stabilised)); higher = stabilised by the compound). Settings: system: HL-60 intact cells; concentration range 0.04-10 µM.
Protocol: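 2D thermal proteome profiling in intact HL-60 cells treated with BRD-3811 (0, 0.04, 0.29, 2, 10 uM) for 90 min at 37 C, then heated 3 min at one of 12 temperatures (42-63.9 C). Soluble protein was quantified by TMT10 MS. The value is the DLPTP call of the paper: dose-dependent thermal stabilisation over all temperatures at 10% FDR (F-test of a dose-response against a flat model); one experiment, one call per tested protein.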

Row | Target | dose-dependent thermal stabilisation call
1 | RAVER2 (UniProt Q9HCJ3) | inactive: 0
2 | REST (UniProt Q13127) | inactive: 0
3 | RAB5B (UniProt P61020) | inactive: 0
4 | RABL3 (UniProt Q5HYI8) | inactive: 0
5 | RNASE3 (UniProt P12724) | inactive: 0
6 | RILPL2 (UniProt Q969X0) | inactive: 0
7 | RBL2 (UniProt Q08999) | inactive: 0
8 | RNF169 (UniProt Q8NCN4) | inactive: 0
9 | RBM26 (UniProt Q5T8P6) | inactive: 0
10 | RANBP9 (UniProt Q96S59) | inactive: 0
11 | QARS | inactive: 0
12 | RAB3D (UniProt O95716) | inactive: 0
13 | RICTOR (UniProt Q6R327) | inactive: 0
14 | RABEPK (UniProt Q7Z6M1) | inactive: 0
15 | RAB43 (UniProt Q86YS6) | inactive: 0
16 | RAE1 (UniProt P78406) | inactive: 0
17 | RAD51 (UniProt Q06609) | inactive: 0
18 | RABAC1 (UniProt Q9UI14) | inactive: 0
19 | RASAL2 (UniProt Q9UJF2) | inactive: 0
20 | PVR (UniProt P15151) | inactive: 0
21 | RETSAT (UniProt Q6NUM9) | inactive: 0
22 | RASA2 (UniProt Q15283) | inactive: 0
23 | RMND5A (UniProt Q9H871) | inactive: 0
24 | RANBP2 (UniProt P49792) | inactive: 0
25 | RAC3 (UniProt P60763) | inactive: 0
26 | RAP1B (UniProt P61224) | inactive: 0
27 | RAB18 (UniProt Q9NP72) | inactive: 0

A different layout for some results above:
Row	Target	dose-dependent thermal stabilisation call
6	RILPL2 (UniProt Q969X0)	inactive: 0
8	RNF169 (UniProt Q8NCN4)	inactive: 0
11	QARS	inactive: 0
14	RABEPK (UniProt Q7Z6M1)	inactive: 0
16	RAE1 (UniProt P78406)	inactive: 0
23	RMND5A (UniProt Q9H871)	inactive: 0
